Measured values from PubChem BioAssay AID330 (DTP/NCI, 2004).
The list does not hold the whole screen: it is rich in T/C values a quarter to a half above the control, in often repeated tests (any T/C) and in doses without a T/C. Further doses and runs are listed elsewhere. T/C is the treated group as % of the vehicle group. Some doses have a count of surviving animals in place of a T/C: the source holds a T/C of zero for them, seemingly a mark for toxic or unscored doses. Some doses without a T/C left all or most animals alive at the check, yet need not have been tolerated: survival well below the control is almost never listed, so the zero probably covers shortened survival too. Survivors were counted at the toxicity check, usually on the fifth day, unless a day is given; later deaths do not show. Schedule codes are those of the source, taken here to give the interval after Q, in days (D) or hours (H), and the number of doses after X. Some entries were tested several times; their values stand side by side, smallest first. Where survival is the endpoint, the PubChem record calls one and a half times the control and up active, and a quarter to a half above the control has no call in these data; cut-offs in other NCI protocols can differ. Additions like (4×) stand for listed records that agree. Some T/C values carry the count of animals alive at the toxicity check (mostly the fifth day); where none is given, no animal had died by that day.

System: P388 leukemia ip, CD2F1 mice, survival T/C
Test: NCI In Vivo Anticancer Drug Screen. Data for tumor model P388 Leukemia (intraperitoneal) in CD2F1 (CDF1) mice
Conditions: T/C endpoint: median survival time, higher T/C = longer survival
[1] = dose: 50.0 mg/kg/injection, schedule: Q01DX009 (ip), vehicle: Klucel (hydroxypropylcellulose) (HPC)
[2] = dose: 240.0 mg/kg/injection, schedule: Q01DX005 (ip), vehicle: Klucel (hydroxypropylcellulose) (HPC)
[3] = dose: 200.0 mg/kg/injection, schedule: Q01DX009 (ip), vehicle: saline with Tween-80
[4] = dose: 400.0 mg/kg/injection, schedule: Q01DX001 (ip), vehicle: saline with Tween-80
[5] = dose: 100.0 mg/kg/injection, schedule: Q01DX005 (ip), vehicle: saline
[6] = dose: 200.0 mg/kg/injection, schedule: Q01DX009 (ip), vehicle: saline
[7] = dose: 100.0 mg/kg/injection, schedule: Q01DX009 (ip), vehicle: saline
[8] = dose: 200.0 mg/kg/injection, schedule: Q01DX005 (ip), vehicle: saline with Tween-80
[9] = dose: 240.0 mg/kg/injection, schedule: Q01DX005 (ip), vehicle: saline with Tween-80

## C=C1C(O)C2(O)OCC34C(CC5C(C)=CC(=O)C(O)C5(C)C23)OC(=O)C(OC(=O)C/C=C(\C)CCCCC)C14 (centres undefined)
dose: 0.25 mg/kg/injection, schedule: Q01DX005 (ip), vehicle: saline + alcohol
  T/C: 138 % of control
dose: 0.5 mg/kg/injection, schedule: Q01DX005 (ip), vehicle: saline + alcohol
  T/C: 142 % of control (2×)
dose: 1.0 mg/kg/injection, schedule: Q01DX005 (ip), vehicle: saline + alcohol
  T/C: 144 and 146 % of control
dose: 2.0 mg/kg/injection, schedule: Q01DX005 (ip), vehicle: saline + alcohol
  T/C: 146 % of control [5 of 6 alive]

## C[n+]1ccccc1-c1nc(-c2cccc[n+]2C)nc(-c2cccc[n+]2C)n1
[1]
  survivor count: 5 of 6 and 6 of 6
dose: 100.0 mg/kg/injection, schedule: Q01DX009 (ip), vehicle: Klucel (hydroxypropylcellulose) (HPC)
  survivor count: 3 of 6
dose: 200.0 mg/kg/injection, schedule: Q01DX009 (ip), vehicle: Klucel (hydroxypropylcellulose) (HPC)
  survivor count: 0 of 6

## O=C1CC=C2C3CC4N(CCC45c4ccccc4N1C25)C/C3=C\CBr (centres undefined)
dose: 15.0 mg/kg/injection, schedule: Q01DX005 (ip), vehicle: Klucel (hydroxypropylcellulose) (HPC)
  survivor count: 3 of 6
dose: 30.0 mg/kg/injection, schedule: Q01DX005 (ip), vehicle: Klucel (hydroxypropylcellulose) (HPC)
  survivor count: 0 of 6
dose: 60.0 mg/kg/injection, schedule: Q01DX005 (ip), vehicle: Klucel (hydroxypropylcellulose) (HPC)
  survivor count: 0 of 6
dose: 120.0 mg/kg/injection, schedule: Q01DX005 (ip), vehicle: Klucel (hydroxypropylcellulose) (HPC)
  survivor count: 0 of 6
[2]
  survivor count: 0 of 6

## COC(=O)C(C#N)c1ccccn1 (centres undefined)
[3]
  survivor count: 4 of 6

## CCOC(=O)/N=[N+](\[O-])c1cccc([N+](=O)[O-])c1
[4]
  survivor count: 0 of 6

## CCCCC(CCCCCC(CCCC)NCc1ccc2c(c1)OCO2)NCc1ccc2c(c1)OCO2 (centres undefined)
dose: 25.0 mg/kg/injection, schedule: Q01DX009 (ip), vehicle: Klucel (hydroxypropylcellulose) (HPC)
  survivor count: 6 of 6
[1]
  survivor count: 5 of 6

## CCC1CCC2COCN2C1 (centres undefined)
dose: 50.0 mg/kg/injection, schedule: Q01DX005 (ip), vehicle: saline
  T/C: 125 % of control
[5]
  T/C: 127 [5 of 6 alive] and 134 % of control

## CCOC(=O)C1CCCCC1NC1CCCCC1C(=O)OCC (centres undefined)
dose: 69.0 mg/kg/injection, schedule: Q01DX009 (ip), vehicle: saline with Tween-80
  T/C: 125 % of control

## CCN(CC)CCCNc1cc(C)c2cc(OC)ccc2n1
dose: 100.0 mg/kg/injection, schedule: Q01DX001 (ip), vehicle: saline with Tween-80
  survivor count: 1 of 6
dose: 200.0 mg/kg/injection, schedule: Q01DX001 (ip), vehicle: saline with Tween-80
  survivor count: 0 of 6
[4]
  survivor count: 0 of 6

## COc1cccc(Oc2cccc[n+]2CC(C)=O)c1
[5]
  survivor count: 1 of 5

## CCOC(=O)/C(=N\N=P(N(C)C)(N(C)C)N(C)C)[As](C)C
[6]
  survivor count: 0 of 6

## CN1CCN(CN2C(=O)C3C4C=CC(C3C2=O)C2C(=O)N(CN3CCN(C)CC3)C(=O)C42)CC1 (centres undefined)
[7]
  T/C: 126 % of control
[6]
  T/C: 128 % of control
dose: 400.0 mg/kg/injection, schedule: Q01DX009 (ip), vehicle: saline
  survivor count: 3 of 6

## CC1CCC(C)(C(O)c2ccc(C(O)C3(C)CCC(C)C3(C)C)cc2)C1(C)C (centres undefined)
[7]
  survivor count: 3 of 6
dose: 200.0 mg/kg/injection, schedule: Q01DX009 (ip), vehicle: suspension in saline
  survivor count: 3 of 6

## Cc1cc(C)cc(C(=O)NC(c2ccncc2)C(NC(=O)c2cc(C)cc(C)c2)c2ccncc2)c1 (centres undefined)
dose: 100.0 mg/kg/injection, schedule: Q01DX005 (ip), vehicle: saline with Tween-80
  survivor count: 6 of 6
[8]
  survivor count: 6 of 6

## Cc1cc2c(cc1C)[n+](=O)c1c(n2[O-])CCC1
[9]
  survivor count: 6 of 6

## O=NC1C(=O)NC(=S)NC1=O
dose: 25.0 mg/kg/injection, schedule: Q04DX002 (ip), vehicle: saline with Tween-80
  survivor count: 4 of 6
dose: 50.0 mg/kg/injection, schedule: Q04DX002 (ip), vehicle: saline with Tween-80
  survivor count: 1 of 6
dose: 100.0 mg/kg/injection, schedule: Q04DX002 (ip), vehicle: saline with Tween-80
  survivor count: 2 of 6
dose: 200.0 mg/kg/injection, schedule: Q04DX002 (ip), vehicle: saline with Tween-80
  survivor count: 0 of 6
dose: 400.0 mg/kg/injection, schedule: Q04DX002 (ip), vehicle: saline with Tween-80
  survivor count: 0 of 6

## CC1(C)OC(=O)C(=Cc2ccc([N+](=O)[O-])s2)C(=O)O1
dose: 400.0 mg/kg/injection, schedule: Q01DX009 (ip), vehicle: saline with Tween-80
  survivor count: 1 of 6

## COc1ccc(C2OC3=C(Nc4cc(C)c(C)cc4N3)C2=O)cc1 (centres undefined)
[2]
  survivor count: 6 of 6

## Cc1cc(C)c(OC(=O)N(CCCl)N=O)c(C)c1
dose: 12.5 mg/kg/injection, schedule: Q01DX001 (ip), vehicle: saline with Tween-80
  T/C: 125 % of control
dose: 25.0 mg/kg/injection, schedule: Q01DX001 (ip), vehicle: saline with Tween-80
  T/C: 126 % of control
dose: 50.0 mg/kg/injection, schedule: Q01DX001 (ip), vehicle: saline with Tween-80
  T/C: 131 % of control

## CCC[CH2][Sn]([CH2]CCC)([O]C(=O)/C=C/c1ccccc1)[O]C(=O)/C=C/c1ccccc1
dose: 3.12 mg/kg/injection, schedule: Q04DX003 (ip), vehicle: DMSO
  survivor count: 6 of 6
dose: 6.25 mg/kg/injection, schedule: Q04DX003 (ip), vehicle: DMSO
  survivor count: 4 of 6
dose: 11.0 mg/kg/injection, schedule: Q04DX003 (ip), vehicle: DMSO
  survivor count: 2 of 6
dose: 12.5 mg/kg/injection, schedule: Q04DX003 (ip), vehicle: DMSO
  survivor count: 0 of 6 and 3 of 6
dose: 16.5 mg/kg/injection, schedule: Q04DX003 (ip), vehicle: DMSO
  survivor count: 0 of 6
dose: 25.0 mg/kg/injection, schedule: Q04DX003 (ip), vehicle: DMSO
  survivor count: 0 of 6
dose: 25.0 mg/kg/injection, schedule: Q04DX003 (ip), vehicle: saline with Tween-80
  T/C: 126 % of control
dose: 37.5 mg/kg/injection, schedule: Q04DX003 (ip), vehicle: DMSO
  survivor count: 0 of 6
dose: 50.0 mg/kg/injection, schedule: Q04DX003 (ip), vehicle: saline with Tween-80
  survivor count: 2 of 6
dose: 100.0 mg/kg/injection, schedule: Q04DX003 (ip), vehicle: saline with Tween-80
  survivor count: 0 of 6

## COc1cc(C(=O)OC(C)CC2(c3ccccc3)C(=O)NC(=O)NC2=O)cc(OC)c1OC (centres undefined)
[3]
  survivor count: 6 of 6

## CC(N=Cc1ccccc1O)c1ccccc1.[CH-]=C([CH2-])C(C)(C)C.[Pd+2] (centres undefined)
dose: 50.0 mg/kg/injection, schedule: Q04DX003 (ip), vehicle: Klucel (hydroxypropylcellulose) (HPC)
  survivor count: 0 of 6
dose: 100.0 mg/kg/injection, schedule: Q04DX003 (ip), vehicle: Klucel (hydroxypropylcellulose) (HPC)
  survivor count: 0 of 6
dose: 200.0 mg/kg/injection, schedule: Q04DX003 (ip), vehicle: Klucel (hydroxypropylcellulose) (HPC)
  survivor count: 0 of 6

## CCOc1ccc(-c2nc(Cl)nc(Cl)n2)c2ccccc12
[2]
  survivor count: 2 of 6

## CC(C)C(NC(=O)[C@H](C(C)C)N1C(=O)c2ccccc2C1=O)C(=O)O (some centres undefined)
[8]
  survivor count: 5 of 5

## Nc1ccc(-c2nc(N)c3[nH]cnc3n2)cc1
dose: 200.0 mg/kg/injection, schedule: Q01DX005 (ip), vehicle: suspension in saline
  survivor count: 0 of 5

## CN(C)c1ccc([N+]([O-])=Nc2ccc3ccccc3c2)cc1
dose: 120.0 mg/kg/injection, schedule: Q01DX005 (ip), vehicle: saline with Tween-80
  survivor count: 6 of 6

## C=CC[n+]1ccc(/C=N\NC(N)=S)c2ccccc21
[3]
  survivor count: 0 of 6

## COc1ccc2c(c1)CCCN2
dose: 100.0 mg/kg/injection, schedule: Q01DX009 (ip), vehicle: saline with Tween-80
  T/C: 132 % of control
[3]
  T/C: 125 and 128 % of control

## O=C(Nc1ccc(Br)c2ccccc12)c1ccc2ccccc2c1O
[9]
  survivor count: 6 of 6
